Experiment [1] has as its target T1, ATMYC1 protein encoded by the native Col allele (Arabidopsis thaliana) (UniProt Q8W2F1).
T1 sequence: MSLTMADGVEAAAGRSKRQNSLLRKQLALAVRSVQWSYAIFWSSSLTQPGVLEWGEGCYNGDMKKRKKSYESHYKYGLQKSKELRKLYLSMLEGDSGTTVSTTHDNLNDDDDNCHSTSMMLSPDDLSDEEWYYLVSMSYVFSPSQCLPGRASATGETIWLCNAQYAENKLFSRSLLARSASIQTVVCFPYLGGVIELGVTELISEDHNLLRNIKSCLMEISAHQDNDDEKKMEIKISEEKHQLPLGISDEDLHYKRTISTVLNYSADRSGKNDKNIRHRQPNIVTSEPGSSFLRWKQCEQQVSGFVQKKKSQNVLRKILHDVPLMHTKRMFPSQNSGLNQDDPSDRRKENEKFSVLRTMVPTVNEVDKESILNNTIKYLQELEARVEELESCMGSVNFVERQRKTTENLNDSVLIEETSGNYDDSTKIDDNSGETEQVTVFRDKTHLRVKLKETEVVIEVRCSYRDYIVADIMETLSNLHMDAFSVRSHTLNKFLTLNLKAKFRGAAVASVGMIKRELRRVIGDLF
The experiment in a line: two-hybrid; ATMYC1 in the DNA binding vector pGBT9 RFB, TTG1 or GL1 in activation domain vectors; yeast strain Y190; growth on histidine dropout media and β-galactosidase activity (X-gal, colonies lifted on nitrocellulose).

Experiment [2] has as its target T2, ATMYC1 Col with P189A (Arabidopsis thaliana) (UniProt Q8W2F1).
T2 sequence: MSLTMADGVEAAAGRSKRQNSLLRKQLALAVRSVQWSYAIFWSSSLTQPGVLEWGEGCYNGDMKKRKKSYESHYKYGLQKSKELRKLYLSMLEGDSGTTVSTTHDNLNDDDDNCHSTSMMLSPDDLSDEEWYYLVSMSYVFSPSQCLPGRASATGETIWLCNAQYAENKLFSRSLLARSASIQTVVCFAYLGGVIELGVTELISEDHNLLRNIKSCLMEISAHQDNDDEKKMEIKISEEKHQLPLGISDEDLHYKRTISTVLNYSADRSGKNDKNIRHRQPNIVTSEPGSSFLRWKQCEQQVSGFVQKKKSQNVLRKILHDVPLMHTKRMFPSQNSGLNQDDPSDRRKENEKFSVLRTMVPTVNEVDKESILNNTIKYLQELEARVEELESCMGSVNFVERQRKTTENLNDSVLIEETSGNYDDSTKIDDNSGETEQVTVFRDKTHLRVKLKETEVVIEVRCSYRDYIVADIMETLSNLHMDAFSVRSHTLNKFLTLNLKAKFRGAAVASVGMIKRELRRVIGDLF
The description is as above.

Results are given in words; binding and its absence hold for the method and conditions named. Some results given as binding are weak or reduced against the parent protein; the word gives no strength. Sequences can lack the tags named with a protein.

B1: GL1 (protein, UniProt P27900 1-228)
chain: MRIRRRDEKENQEYKKGLWTVEEDNILMDYVLNHGTGQWNRIVRKTGLKRCGKSCRLRWMNYLSPNVNKGNFTEQEEDLIIRLHKLLGNRWSLIAKRVPGRTDNQVKNYWNTHLSKKLVGDYSSAVKTTGEDDDSPPSLFITAATPSSCHHQQENIYENIAKSFNGVVSASYEDKPKQELAQKDVLMATTNDPSHYYGNNALWVHDDDFELSSLVMMNFASGDVEYCL
On to B1, for which the binding result in experiment [1] was “binds”; in experiment [2] it was “no binding”.

B2: TTG1 (protein, UniProt Q9XGN1 1-341)
chain: MDNSAPDSLSRSETAVTYDSPYPLYAMAFSSLRSSSGHRIAVGSFLEDYNNRIDILSFDSDSMTVKPLPNLSFEHPYPPTKLMFSPPSLRRPSSGDLLASSGDFLRLWEINEDSSTVEPISVLNNSKTSEFCAPLTSFDWNDVEPKRLGTCSIDTTCTIWDIEKSVVETQLIAHDKEVHDIAWGEARVFASVSADGSVRIFDLRDKEHSTIIYESPQPDTPLLRLAWNKQDLRYMATILMDSNKVVILDIRSPTMPVAELERHQASVNAIAWAPQSCKHICSGGDDTQALIWELPTVAGPNGIDPMSVYSAGSEINQLQWSSSQPDWIGIAFANKMQLLRV
Take B2: the binding entry in experiment [1] is on record as “binds”; in experiment [2], “no binding”.

The record behind these values is article PMC3111535.
